{"source": "patent US20250387362A1", "about": "“COMPOSITIONS FOR AND METHODS OF PRECISION CANCER TREATMENT” (priority 2022, published 2025)", "origin": "cited, not measured here", "settings": "cited from earlier work", "note": "At least one structure is not confirmed: it was looked up by name or label, or the drawing left a doubt."}
{"smiles": "O=C([O-])Cc1ccccc1.[Na+]", "note": "[phenylacetate]", "values": [{"measurement": "factor by which the effect of radiation therapy is increased", "result": 2.5}]}
